The target of assay [1] is T1, Flag-S6KL (Drosophila S6 kinase like) (Drosophila melanogaster) (UniProt Q9VWQ2).
T1 sequence: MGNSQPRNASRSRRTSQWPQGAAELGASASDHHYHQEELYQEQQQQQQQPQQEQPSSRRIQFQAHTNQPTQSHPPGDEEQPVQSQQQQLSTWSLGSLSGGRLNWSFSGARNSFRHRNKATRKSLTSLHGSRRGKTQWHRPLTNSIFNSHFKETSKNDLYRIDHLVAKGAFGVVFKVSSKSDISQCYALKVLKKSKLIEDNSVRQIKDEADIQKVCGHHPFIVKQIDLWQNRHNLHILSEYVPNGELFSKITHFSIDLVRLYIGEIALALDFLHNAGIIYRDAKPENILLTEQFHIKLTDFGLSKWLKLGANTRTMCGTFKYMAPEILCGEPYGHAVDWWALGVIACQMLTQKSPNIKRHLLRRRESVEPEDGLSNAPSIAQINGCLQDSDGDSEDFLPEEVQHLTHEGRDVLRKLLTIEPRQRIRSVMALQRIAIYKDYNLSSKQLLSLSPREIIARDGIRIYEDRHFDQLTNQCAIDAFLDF
The experiment in a line: co-IP; S2 cells co-transfected with Flag-S6KL or Flag-S6KL^KD and Myc-Tkv; RIPA lysates precleared, immunoprecipitated with anti-Flag (or anti-Myc; control IgG) on protein G-Sepharose, 3 h at 4°C, five washes with RIPA buffer; western with anti-Flag and anti-Myc.

Assay [2] deals with T2, Flag-S6KL^K193Q (kinase-dead S6KL) (Drosophila melanogaster) (UniProt Q9VWQ2).
T2 sequence: T1 sequence with K193Q
Described as above.

For 1 substance, binding results are on record in article PMC4351882.

Positions count from the first letter of the chain named. These are yes or no findings as the source states them, for the method shown. Binding seen in cells or lysates may run through a third protein. A result given as binding can be weak or reduced; the word gives no strength. Sequences can lack the tags named with a protein.

On to “Myc-Tkv (BMP type I receptor thickveins) (Drosophila melanogaster)”, for which the binding entry in assay [1] and in assay [2] was “binds” in each case.
